Screen size: about 78,000 compounds; about 1,800 (2.3%) were called active. This list was built around the results that the source calls inconclusive (neither active nor inactive); the mix of calls is not that of the screen. No stated cut-off is given here; in the data, active means inhibition above about 30%; inconclusive means mostly about 10% to 28%; inactive means weaker than that.
Target: Interleukin-1 receptor-like 1 (Homo sapiens) (UniProt Q01638)
Test: blocks human ST2 binding to IL-33, primary screen, biochemical, AlphaLISA (AID 1259354)
Settings: AlphaLISA ST2-Fc/biotin-IL-33 interaction, 1 h; at 17 µM, hits give high values

By UniProt entry, the sequences of proteins in these tests, tags left out. Where a name states a change or a piece, a line headed by the entry shows the natural chain unless it says otherwise.
UniProt Q01638: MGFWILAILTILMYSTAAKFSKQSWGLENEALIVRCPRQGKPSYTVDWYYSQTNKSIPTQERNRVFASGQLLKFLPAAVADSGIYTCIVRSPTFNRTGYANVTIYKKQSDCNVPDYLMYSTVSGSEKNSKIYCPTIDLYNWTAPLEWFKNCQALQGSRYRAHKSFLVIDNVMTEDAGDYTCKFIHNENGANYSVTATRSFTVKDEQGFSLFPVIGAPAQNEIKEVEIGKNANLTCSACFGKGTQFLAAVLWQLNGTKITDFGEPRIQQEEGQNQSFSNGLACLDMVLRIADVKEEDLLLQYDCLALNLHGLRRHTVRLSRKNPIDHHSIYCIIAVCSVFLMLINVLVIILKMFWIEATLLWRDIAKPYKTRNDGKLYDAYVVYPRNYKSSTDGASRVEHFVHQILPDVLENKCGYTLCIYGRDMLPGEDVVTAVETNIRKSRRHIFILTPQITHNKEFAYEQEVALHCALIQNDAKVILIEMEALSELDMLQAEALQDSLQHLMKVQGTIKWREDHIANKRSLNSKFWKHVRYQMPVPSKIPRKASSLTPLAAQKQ

| SMILES | inhibition |
| --- | --- |
| O=C(CSc1nc2c(c(=O)n1-c1ccc(Cl)cc1)SCC2)Nc1cccc(F)c1 | inactive |
| COc1cc2[nH]c(=O)n(Cc3ccccc3)c(=O)c2cc1OC | inactive |
| Cc1ccc(-c2nc(NCC(C)C)c3ccccc3n2)cc1 | inconclusive: 14% |
| CCCNC(=O)C1(O)c2cc(Br)ccc2NC(=O)N1c1ccc(Cl)cc1 (centres undefined) | inconclusive: 11% |
| CC(C)CN1CC(OCc2cccc(F)c2)CN(C(=O)Cn2cnc3ccccc3c2=O)CC1=O (centres undefined) | inconclusive: 28% |
| CCc1ccc(S(=O)(=O)N=C2C=C(Nc3ccc(OC)cc3)C(=O)c3ccccc32)cc1 | active: 95% |
| CCn1ncc(NC(=O)Cn2ccc(-c3cc4ccccc4o3)n2)n1 | inactive |
| CC(C)NC[C@H]1O[C@@H](CO)[C@@H](O)[C@H]1N1CCN(c2ccccc2)CC1 | inconclusive: 12% |
| COc1ccc2nc3oc(C(=O)N4CCN(c5ccccc5OC)CC4)cc3cc2c1 | inactive |
| Cc1nc2nc[nH]n2c(=O)c1NC(=O)NCc1ccc(F)cc1 | inconclusive: 10% |
| O=C1c2ccc(Br)cc2C(=O)N1CCO | inactive |
| CCSc1nnc2c(n1)OC(c1ccccc1)Nc1ccccc1-2 (centres undefined) | inactive |
| CC(C)NC(=O)CN1CCN(C(=O)c2ccc3nc(C4CCCCC4)oc3c2)CC1 | inactive |
| O=S(=O)(NC[C@H]1O[C@@H](CO)[C@@H](O)[C@H]1N1CCCC1)c1ccc(F)cc1 | inactive |
| Cc1cc(C)c(S(=O)(=O)Nc2ccc(Cl)cn2)cc1C | inactive |
| CC(C)=CC(=O)NCC1CCN(Cc2[nH]c3ccc(C)cc3c2C)C1 (centres undefined) | inactive |
| Clc1ccc(SCc2nc3ncccn3c2Br)cc1 | inconclusive: 10% |
| CCc1cccc(C)c1NC(=O)c1cc2ccccc2o1 | inactive |
| COc1ccc(S(=O)(=O)N=C2C=C(Nc3ccc(C)cc3)C(=O)c3ccccc32)cc1 | active: 92% |
| CCC(=O)N1c2ccccc2-c2nnc(SC)nc2OC1c1ccc(C)s1 (centres undefined) | inconclusive: 26% |
| COc1cccc(CN2CCCC(NC(=O)COc3ccc(C(C)=O)cc3)C2)c1 (centres undefined) | inconclusive: 13% |
| Cc1ccc(C)c(S(=O)(=O)n2nnc3cc(Cl)ccc32)c1 | inconclusive: 14% |
| COc1cccc(Cn2c(CNS(=O)(=O)c3ccc(C(C)C)cc3)nc3cccnc32)c1 | inactive |
| O=S(=O)(N=C(OC1CCCCC1)c1ccccc1)c1ccccc1 | inactive |

| SMILES | inhibition |
| --- | --- |
| Brc1ccccc1CN1CCN(c2ccccn2)CC1 | inactive |
| Cc1ccc(C2C3=C(CCCC3=O)Nc3nc(SCc4ccccc4F)nn32)cc1 (centres undefined) | inactive |
| C=CCn1c(SCC(=O)Nc2ccc(OC(F)(F)F)cc2)nc2c1c(=O)n(C)c(=O)n2C | inconclusive: 17% |
| COc1ccc(-c2nn(-c3ccccc3C)cc2CNCc2ccc(C)o2)cc1F | inconclusive: 26% |
| COCCOC(=O)C1=C(C)NC(=O)NC1c1ccccc1O (centres undefined) | inactive |
| COC(=O)c1nc2n(n1)C(c1cccc(Br)c1)C1=C(CCCC1=O)N2 (centres undefined) | inconclusive: 16% |
| O=C(Nc1ccc2c(c1)CCC2)c1cc([N+](=O)[O-])nn1Cc1ccccc1 | inconclusive: 23% |
| CCc1nc(SCC(=O)c2ccc(OC)c(C)c2)n[nH]1 | inconclusive: 20% |
| CCOCCCNC(=O)CN1C(=O)/C(=C\c2cccc(Cl)c2)Sc2ccccc21 | inconclusive: 13% |
| Cc1c(CC(Cl)(Cl)Cl)c2c(n1-c1cccnc1)CCCC2=O | inconclusive: 25% |
| O=C(O)CN1C(=O)S/C(=C\c2ccco2)C1=O | active: 74% |
| CC(C)CCNC(=O)c1ccc(CS(=O)(=O)c2ccc(Br)cc2)o1 | inconclusive: 12% |
| O=c1c2oc3ccccc3c2ncn1Cc1ccc(Cl)cc1 | inconclusive: 12% |
| O=C(Nc1ccccc1-c1ccccc1)c1ccc([N+](=O)[O-])cc1Cl | inactive |
| COCC(=O)NC[C@H]1O[C@@H](CO)[C@@H](O)[C@H]1N1CCN(c2ccccn2)CC1 | inconclusive: 13% |
| CC1CCCC(C)N1C(=O)c1ccc([N+](=O)[O-])cc1 (centres undefined) | inactive |
| C=C1C(=O)O[C@@H]2C/C(C)=C\C(=O)/C=C(\C)[C@@H](OC(=O)/C(C)=C\C)[C@H](O)[C@@H]12 | inconclusive: 13% |
| O=C1Nc2ccccc2S/C1=C\C(=O)N1CCN(c2ccccn2)CC1 | inactive |
| COc1ccc(C2C(Oc3ccccc3C)C(=O)N2c2cccc([N+](=O)[O-])c2)cc1OC (centres undefined) | inconclusive: 18% |
| O=C1OC(c2cccc(I)c2)=N/C1=C\c1ccco1 | inconclusive: 18% |
| COc1ccc(OC)c(C2SCCN2S(=O)(=O)c2ccc(C)c(C)c2)c1 (centres undefined) | inactive |
| Cc1nn(C)c(C)c1CN(C)C(=O)CC(c1ccccc1)c1ccccc1F (centres undefined) | inactive |
| COc1cc(NC(=O)c2ccccc2)c(OC)cc1NC(=O)CC(=O)c1ccccc1 | inconclusive: 12% |
| COC(=O)[C@@H](Cc1cccnc1)NC(=O)[C@H]1CN(C(=O)c2cccnc2)CCN1C(C)=O | inconclusive: 16% |

| SMILES | inhibition |
| --- | --- |
| COc1cccc(CCNC(=O)Cn2nnnc2CN2CCCCCC2)c1OC | inactive |
| COc1cccc2cc(NC(=O)/C=C/c3ccc(Cl)cc3)c(=O)oc12 | inconclusive: 17% |
| Cn1c(SCC(=O)Nc2ccccc2)nc2c([nH]c3ccccc32)c1=O | inconclusive: 22% |
| COc1ccccc1/C=C1/SC(N2CCCCC2)=NC1=O | inconclusive: 12% |
| Brc1ccccc1CN1CCN(c2ncccn2)CC1 | inactive |
| Cc1ccsc1C(=O)N1CCC(C2(Cc3ccc(F)cc3)NC(=O)N(C3CCOC3)C2=O)CC1 (centres undefined) | inconclusive: 18% |
| C=CCn1c(C(C)NC(=O)Cc2ccccc2)nc2ccccc21 (centres undefined) | inconclusive: 14% |
| O=C(CSc1nc2c(sc3ccccc32)c(=O)n1CCO)NCc1ccco1 | inconclusive: 14% |
| CCCN(CC#Cc1ccccc1)C(=O)c1ccc2c(c1)nnn2C | inconclusive: 12% |
| CC[C@H](C)C(=O)O[C@H]1CCC=C2C=C[C@H](C)[C@H](CC[C@@H]3C[C@@H](O)CC(=O)O3)[C@H]21 | inconclusive: 21% |
| O=C(c1cn(Cc2ccccc2Cl)nn1)N1CCCCC1c1cccnc1 (centres undefined) | inactive |
| CCCn1nccc1C(=O)N1CCNCC1C(=O)N1CCOCC1 (centres undefined) | inactive |
| COc1ccc(Cn2c(-c3cc(C)nn3C)n[nH]c2=O)cc1 | inconclusive: 12% |
| Cc1cc(=O)c(C(=O)N2CCCC(N(C)Cc3ccccc3)C2)c[nH]1 (centres undefined) | inconclusive: 13% |
| Cc1cc(C)n(CCC(=O)N2CCC(=O)NCC2C)c(=O)n1 (centres undefined) | inactive |
| CC1CCN(CC(O)COc2ccc(C3CCCCC3)cc2)CC1 (centres undefined) | inconclusive: 10% |
| COc1ccc(NC(=O)CCCn2nc([N+](=O)[O-])c(Br)c2C)cc1 | inconclusive: 16% |
| CS(=O)(=O)N1C[C@@H]2OCC(=O)N(CC3CC3)[C@@H]2C1 | inconclusive: 10% |
| O=c1c(C=NCc2ccco2)c(-c2ccccc2)[nH]n1-c1nc2ccccc2s1 | inconclusive: 14% |
| COc1cccc(-c2nc(S(=O)(=O)c3ccccc3)c(N(C)C)o2)c1 | inactive |
| Cc1n[nH]c(C)c1CCC(=O)NCc1cccnc1N1CCCN(C)CC1 | inconclusive: 15% |
| Cc1cc(-c2csc(Nc3ncccn3)n2)ccc1F | inconclusive: 18% |
| CC(C)=CCc1cc2c(c(CC=C(C)C)c1O)OCC(c1ccc(O)cc1O)C2=O (centres undefined) | inconclusive: 13% |
| O=C(c1ccc2ccccc2c1)N1C[C@@H]2C[C@H](C1)c1ccc(NS(=O)(=O)c3cccc(F)c3)c(=O)n1C2 | inconclusive: 12% |

Quoted at random: 3 entries already listed, in no set order.

| SMILES | inhibition |
| --- | --- |
| O=C(c1ccc2ccccc2c1)N1C[C@@H]2C[C@H](C1)c1ccc(NS(=O)(=O)c3cccc(F)c3)c(=O)n1C2 | inconclusive: 12% |
| Brc1ccccc1CN1CCN(c2ncccn2)CC1 | inactive |
| Cc1n[nH]c(C)c1CCC(=O)NCc1cccnc1N1CCCN(C)CC1 | inconclusive: 15% |

Ordered by SMILES length (largest number first): part of the list above.

| SMILES | inhibition |
| --- | --- |
| C=C1C(=O)O[C@@H]2C/C(C)=C\C(=O)/C=C(\C)[C@@H](OC(=O)/C(C)=C\C)[C@H](O)[C@@H]12 | inconclusive: 13% |
| COC(=O)c1nc2n(n1)C(c1cccc(Br)c1)C1=C(CCCC1=O)N2 (centres undefined) | inconclusive: 16% |
| CCCn1nccc1C(=O)N1CCNCC1C(=O)N1CCOCC1 (centres undefined) | inactive |

Remaining list, next part:

| SMILES | inhibition |
| --- | --- |
| O=C(NCc1cccc(Cl)c1)c1cnn2c(C(F)(F)F)cc(-c3ccco3)nc12 | inactive |
| CC(C)c1nccc(CN(C)Cc2ccc3nsnc3c2)n1 | inconclusive: 27% |
| CN(C(=O)c1ccsc1)C(Cc1ccccc1)C1CCN(C(=O)c2ccc3[nH]ccc3c2)CC1 (centres undefined) | inactive |
| O=C1C2CC=CCC2C(=O)N1c1cccc(O)c1 (centres undefined) | inconclusive: 12% |
| COC(=O)c1cccc(-c2cccc(C(F)(F)F)n2)c1 | inconclusive: 15% |
| O=C(NC(Oc1ccccc1)C(Cl)(Cl)Cl)c1cc([N+](=O)[O-])cc([N+](=O)[O-])c1 (centres undefined) | inconclusive: 22% |
| COc1ccc2nc(N3CCCC(C(=O)NCCCOC(C)C)C3)sc2c1 (centres undefined) | inconclusive: 13% |
| Cc1nc2ccncc2cc1C(=O)N1CCN(C)C(=O)C1 | inconclusive: 11% |
| CSc1nc2ccccc2n1C1CCCCC1 | inactive |
| CCOC(=O)c1ccc(CN2Cc3ncccc3C2=O)o1 | inconclusive: 11% |
| CC(C)CNC(=O)c1ccc(NC(=O)c2ccccc2I)cc1 | inactive |
| COC(=O)c1c(C)oc2ccc(OCC(=O)OC(C)(C)C)cc12 | inconclusive: 12% |
| CCOc1ccccc1/C=C1N=C(/C=C/c2ccccc2OC)OC\1=O | inconclusive: 23% |
| COc1ccc(-n2c(O)c(C=Nc3ccc(OC)c(OC)c3)c3ccccc3c2=O)cc1 | inactive |
| COc1ccc(-c2cn3c4c(=O)n(C)c(=O)n(C)c4nc3n2Cc2ccco2)cc1 | inconclusive: 15% |
| CC(=O)c1cc(CN2CCc3onc(-c4ccc5c(c4)OCO5)c3C2)cs1 | inactive |
| C=CCn1c(C(Cc2ccccc2)NC(=O)c2cccs2)nc2ccccc21 (centres undefined) | inactive |
| COc1ccccc1-n1c(SCC(=O)Nc2cccc(C)c2C)nc2c(c1=O)SCC2 | inconclusive: 13% |
| COc1ccc(/C=c2\sc3nc(-c4ccccc4)nn3c2=O)cc1 | inconclusive: 26% |
| Cc1ccc(-n2c(SCC(N)=O)nc3sc4c(c3c2=O)CCCCC4)cc1 | inconclusive: 13% |
| COc1ccc(C(=O)c2c[nH]c3ccccc23)cc1 | inconclusive: 18% |
| N#Cc1c(-c2ccccc2)cc(N2CCOCC2)n2c1nc1ccccc12 | inactive |
